PubChem BioAssay AID1508597, Cure First – 2020
This is a random part of the about 2,100 reagents, in one setting of the screen. 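Calls flag viability under 80% in either arm, not effects specific to rucaparib; the reference for percent is not stated.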 A reagent listed more than once was tested more than once; the source does not tell the runs apart. No sequences are given here. Not given: the 100% reference.

- Test: 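Survival screen with siRNA in ovarian cancer cells derived from patients, with or without rucaparib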 (primary screen)
- Cells: human ovarian carcinoma lines grown from tumours: OCI-P5x (papillary serous) and OCI-C5x (clear cell)
- Reagents: siRNA pool against human genes, 1.25 pmol siRNA per well
- Timing: 72 h or 96 h, depending on the cell culture
- Treatment: rucaparib 20 µM (about IC30) or vehicle, present until read-out
- Rucaparib or vehicle: Vehicle
- Cell line: OCI-C5x (clear cell)
- Measured: 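ATP luminescence measured at 72 or 96 h according to the culture, then normalised and expressed as percent viability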
- Direction: viability, normalised: higher = more viable cells remaining
- Rule for the call: 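Active when normalised viability falls below 80 percent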
- Meaning of the calls: active = viability under 80%; inactive = viability 80% or more

CLK2, technical replicate 1 | viability, normalised (%) = 95.5; Outcome = inactive
CLK2, technical replicate 1 | viability, normalised (%) = 58.1; Outcome = active
CLK2, technical replicate 2 | viability, normalised (%) = 98.9; Outcome = inactive
CLK2, technical replicate 2 | viability, normalised (%) = 66.3; Outcome = active
CLK2, technical replicate 3 | viability, normalised (%) = 74; Outcome = active
CLK2, technical replicate 3 | viability, normalised (%) = 59.2; Outcome = active
ADCK1, technical replicate 1 | viability, normalised (%) = 64.7; Outcome = active
ADCK1, technical replicate 2 | viability, normalised (%) = 60.4; Outcome = active
ADCK1, technical replicate 3 | viability, normalised (%) = 56.5; Outcome = active
COPS3, technical replicate 1 | viability, normalised (%) = 51.4; Outcome = active
COPS3, technical replicate 2 | viability, normalised (%) = 68.3; Outcome = active
COPS3, technical replicate 3 | viability, normalised (%) = 49.7; Outcome = active
CLDN12, technical replicate 1 | viability, normalised (%) = 27; Outcome = active
CLDN12, technical replicate 2 | viability, normalised (%) = 51.7; Outcome = active
CLDN12, technical replicate 3 | viability, normalised (%) = 51.8; Outcome = active
PDE4B, technical replicate 1 | viability, normalised (%) = 36.2; Outcome = active
PDE4B, technical replicate 2 | viability, normalised (%) = 49.1; Outcome = active
PDE4B, technical replicate 3 | viability, normalised (%) = 42; Outcome = active

No new results follow: entries from further up.
PDE4B, technical replicate 1 | viability, normalised (%) = 36.2; Outcome = active
PDE4B, technical replicate 2 | viability, normalised (%) = 49.1; Outcome = active
PDE4B, technical replicate 3 | viability, normalised (%) = 42; Outcome = active

The listing continues:
CLDN2, technical replicate 1 | viability, normalised (%) = 26.7; Outcome = active
CLDN2, technical replicate 2 | viability, normalised (%) = 29.6; Outcome = active
CLDN2, technical replicate 3 | viability, normalised (%) = 29; Outcome = active
SMARCC2, technical replicate 1 | viability, normalised (%) = 43.4; Outcome = active
SMARCC2, technical replicate 2 | viability, normalised (%) = 32.7; Outcome = active
SMARCC2, technical replicate 3 | viability, normalised (%) = 45.1; Outcome = active
DDX46, technical replicate 1 | viability, normalised (%) = 44.2; Outcome = active
DDX46, technical replicate 2 | viability, normalised (%) = 51.3; Outcome = active
DDX46, technical replicate 3 | viability, normalised (%) = 50; Outcome = active
ARID5A, technical replicate 1 | viability, normalised (%) = 26.4; Outcome = active
ARID5A, technical replicate 2 | viability, normalised (%) = 43.5; Outcome = active
ARID5A, technical replicate 3 | viability, normalised (%) = 38.2; Outcome = active
KDM5D, technical replicate 1 | viability, normalised (%) = 36.1; Outcome = active
KDM5D, technical replicate 2 | viability, normalised (%) = 53.8; Outcome = active
KDM5D, technical replicate 3 | viability, normalised (%) = 48; Outcome = active
